In the supplement of paper PMC7666118:
Some of the results follow.

Amino acid sequences for entries named in this document (tags omitted). A change or cut given only in a name is not applied to a line headed by its entry.
UniProt Q14997: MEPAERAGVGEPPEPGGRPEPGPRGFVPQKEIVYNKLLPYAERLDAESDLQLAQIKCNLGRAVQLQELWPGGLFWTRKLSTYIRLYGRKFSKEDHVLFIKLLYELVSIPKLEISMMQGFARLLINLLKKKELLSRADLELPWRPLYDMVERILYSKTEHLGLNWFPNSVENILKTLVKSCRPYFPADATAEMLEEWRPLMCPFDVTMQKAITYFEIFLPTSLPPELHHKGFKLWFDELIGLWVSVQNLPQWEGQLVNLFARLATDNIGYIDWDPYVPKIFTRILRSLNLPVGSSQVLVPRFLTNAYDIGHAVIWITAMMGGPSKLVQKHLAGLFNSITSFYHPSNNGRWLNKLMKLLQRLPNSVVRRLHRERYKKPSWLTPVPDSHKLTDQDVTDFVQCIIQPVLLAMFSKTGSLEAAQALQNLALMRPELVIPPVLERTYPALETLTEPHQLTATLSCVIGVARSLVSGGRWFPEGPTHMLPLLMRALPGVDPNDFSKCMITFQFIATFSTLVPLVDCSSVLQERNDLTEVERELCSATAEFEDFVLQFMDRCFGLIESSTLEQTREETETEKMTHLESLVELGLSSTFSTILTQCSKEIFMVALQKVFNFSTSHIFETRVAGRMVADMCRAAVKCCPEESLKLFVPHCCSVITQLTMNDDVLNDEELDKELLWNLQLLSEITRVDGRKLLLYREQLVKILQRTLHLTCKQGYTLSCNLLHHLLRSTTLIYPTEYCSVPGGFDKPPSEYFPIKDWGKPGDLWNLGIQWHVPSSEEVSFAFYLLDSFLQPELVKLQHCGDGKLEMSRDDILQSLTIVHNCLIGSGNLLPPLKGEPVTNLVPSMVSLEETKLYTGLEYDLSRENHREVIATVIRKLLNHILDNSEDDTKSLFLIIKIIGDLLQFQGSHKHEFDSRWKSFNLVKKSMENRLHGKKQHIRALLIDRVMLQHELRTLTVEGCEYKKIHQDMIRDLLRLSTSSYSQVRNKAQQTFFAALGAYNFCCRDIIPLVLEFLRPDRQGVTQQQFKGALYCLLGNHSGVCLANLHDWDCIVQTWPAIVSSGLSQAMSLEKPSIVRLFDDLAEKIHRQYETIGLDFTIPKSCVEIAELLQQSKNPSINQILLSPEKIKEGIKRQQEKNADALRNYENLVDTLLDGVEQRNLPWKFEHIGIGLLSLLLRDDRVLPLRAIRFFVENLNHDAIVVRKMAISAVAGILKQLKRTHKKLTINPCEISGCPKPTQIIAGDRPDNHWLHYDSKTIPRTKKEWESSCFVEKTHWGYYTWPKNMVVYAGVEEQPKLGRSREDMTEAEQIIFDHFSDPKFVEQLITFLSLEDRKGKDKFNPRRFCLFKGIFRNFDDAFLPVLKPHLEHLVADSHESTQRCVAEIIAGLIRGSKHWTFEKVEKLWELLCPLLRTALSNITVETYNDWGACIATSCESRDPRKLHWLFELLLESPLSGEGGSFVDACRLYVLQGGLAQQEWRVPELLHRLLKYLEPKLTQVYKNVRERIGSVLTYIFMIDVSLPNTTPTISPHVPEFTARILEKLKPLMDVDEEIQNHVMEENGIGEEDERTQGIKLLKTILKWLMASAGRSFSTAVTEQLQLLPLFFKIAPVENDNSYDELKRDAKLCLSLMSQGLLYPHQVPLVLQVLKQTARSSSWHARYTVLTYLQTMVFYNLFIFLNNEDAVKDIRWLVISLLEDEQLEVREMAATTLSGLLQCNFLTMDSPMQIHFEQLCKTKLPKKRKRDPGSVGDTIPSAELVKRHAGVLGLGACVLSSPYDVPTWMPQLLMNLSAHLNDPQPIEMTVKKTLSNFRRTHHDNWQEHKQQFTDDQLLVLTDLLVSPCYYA
UniProt Q13162: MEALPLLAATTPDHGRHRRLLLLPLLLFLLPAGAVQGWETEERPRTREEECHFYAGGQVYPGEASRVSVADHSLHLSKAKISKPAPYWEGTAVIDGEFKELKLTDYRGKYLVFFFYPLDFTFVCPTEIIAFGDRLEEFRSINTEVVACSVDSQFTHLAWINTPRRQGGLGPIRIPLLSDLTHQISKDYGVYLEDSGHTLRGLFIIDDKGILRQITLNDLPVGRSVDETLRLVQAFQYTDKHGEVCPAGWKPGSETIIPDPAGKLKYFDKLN
UniProt P49642: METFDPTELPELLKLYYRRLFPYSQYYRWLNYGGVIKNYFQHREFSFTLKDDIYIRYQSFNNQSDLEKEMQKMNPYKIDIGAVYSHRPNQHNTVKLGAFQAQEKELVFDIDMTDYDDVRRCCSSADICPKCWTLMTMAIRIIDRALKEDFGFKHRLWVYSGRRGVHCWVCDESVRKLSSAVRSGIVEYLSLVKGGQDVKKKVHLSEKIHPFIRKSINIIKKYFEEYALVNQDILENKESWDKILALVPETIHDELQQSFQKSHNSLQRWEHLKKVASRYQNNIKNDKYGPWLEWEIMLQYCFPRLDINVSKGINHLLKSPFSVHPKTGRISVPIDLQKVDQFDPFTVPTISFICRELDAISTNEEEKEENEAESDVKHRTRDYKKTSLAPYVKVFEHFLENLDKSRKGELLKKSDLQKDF
UniProt Q4J6C6, whole entry: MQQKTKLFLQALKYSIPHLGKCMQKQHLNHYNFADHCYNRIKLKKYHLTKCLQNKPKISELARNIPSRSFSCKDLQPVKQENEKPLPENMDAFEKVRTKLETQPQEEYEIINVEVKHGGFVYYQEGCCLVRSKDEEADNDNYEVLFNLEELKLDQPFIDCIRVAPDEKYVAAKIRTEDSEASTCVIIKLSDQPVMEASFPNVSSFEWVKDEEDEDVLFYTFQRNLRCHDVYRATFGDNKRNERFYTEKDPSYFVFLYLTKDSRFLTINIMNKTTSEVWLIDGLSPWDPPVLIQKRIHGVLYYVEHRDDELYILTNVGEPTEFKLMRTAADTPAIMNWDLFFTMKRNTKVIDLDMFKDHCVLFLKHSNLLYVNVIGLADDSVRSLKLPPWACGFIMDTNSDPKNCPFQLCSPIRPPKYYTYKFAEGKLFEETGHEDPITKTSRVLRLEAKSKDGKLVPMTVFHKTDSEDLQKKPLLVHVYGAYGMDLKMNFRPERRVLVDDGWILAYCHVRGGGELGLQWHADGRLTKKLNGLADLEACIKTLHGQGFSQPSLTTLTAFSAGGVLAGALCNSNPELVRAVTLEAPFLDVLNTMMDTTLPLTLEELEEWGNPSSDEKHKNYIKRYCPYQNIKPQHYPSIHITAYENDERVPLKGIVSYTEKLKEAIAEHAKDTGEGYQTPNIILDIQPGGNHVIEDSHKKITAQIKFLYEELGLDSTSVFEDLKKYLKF
UniProt Q9UL46, whole entry: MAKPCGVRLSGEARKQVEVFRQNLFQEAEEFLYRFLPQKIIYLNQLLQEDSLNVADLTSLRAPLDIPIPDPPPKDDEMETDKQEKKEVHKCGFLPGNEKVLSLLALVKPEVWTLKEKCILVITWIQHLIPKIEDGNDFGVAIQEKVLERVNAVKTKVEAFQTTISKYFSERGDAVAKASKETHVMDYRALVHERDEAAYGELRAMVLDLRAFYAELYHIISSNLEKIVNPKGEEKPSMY
UniProt P62136, whole entry: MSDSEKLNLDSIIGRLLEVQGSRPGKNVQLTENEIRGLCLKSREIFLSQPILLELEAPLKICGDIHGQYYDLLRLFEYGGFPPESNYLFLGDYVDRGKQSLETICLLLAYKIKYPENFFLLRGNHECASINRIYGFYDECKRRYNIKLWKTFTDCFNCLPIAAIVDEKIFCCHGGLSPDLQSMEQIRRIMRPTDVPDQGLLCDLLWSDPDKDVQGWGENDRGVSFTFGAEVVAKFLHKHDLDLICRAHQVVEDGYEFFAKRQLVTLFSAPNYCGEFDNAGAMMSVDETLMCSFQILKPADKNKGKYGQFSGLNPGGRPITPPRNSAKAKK
UniProt O75400: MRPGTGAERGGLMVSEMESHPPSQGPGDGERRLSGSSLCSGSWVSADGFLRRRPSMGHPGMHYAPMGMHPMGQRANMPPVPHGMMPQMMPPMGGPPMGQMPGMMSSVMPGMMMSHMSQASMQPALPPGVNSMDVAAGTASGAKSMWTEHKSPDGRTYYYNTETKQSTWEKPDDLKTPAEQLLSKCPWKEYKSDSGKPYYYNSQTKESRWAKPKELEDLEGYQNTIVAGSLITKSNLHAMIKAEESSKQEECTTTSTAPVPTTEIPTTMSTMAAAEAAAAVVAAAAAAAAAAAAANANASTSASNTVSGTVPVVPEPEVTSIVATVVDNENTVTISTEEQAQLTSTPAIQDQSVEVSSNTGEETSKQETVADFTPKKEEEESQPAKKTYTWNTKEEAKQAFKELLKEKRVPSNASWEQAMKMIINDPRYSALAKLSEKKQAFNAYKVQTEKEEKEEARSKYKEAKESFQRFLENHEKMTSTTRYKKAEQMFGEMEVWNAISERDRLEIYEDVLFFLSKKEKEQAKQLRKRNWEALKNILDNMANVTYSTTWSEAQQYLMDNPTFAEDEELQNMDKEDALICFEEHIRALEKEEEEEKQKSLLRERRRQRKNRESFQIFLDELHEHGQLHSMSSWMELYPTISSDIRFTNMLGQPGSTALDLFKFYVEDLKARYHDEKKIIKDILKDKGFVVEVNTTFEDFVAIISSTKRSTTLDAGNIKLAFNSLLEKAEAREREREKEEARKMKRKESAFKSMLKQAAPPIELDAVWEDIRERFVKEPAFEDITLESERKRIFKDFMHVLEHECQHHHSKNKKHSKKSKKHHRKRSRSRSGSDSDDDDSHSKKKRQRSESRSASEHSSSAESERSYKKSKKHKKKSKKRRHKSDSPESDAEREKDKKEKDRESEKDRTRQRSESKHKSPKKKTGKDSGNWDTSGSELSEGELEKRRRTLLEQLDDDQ
UniProt P16435: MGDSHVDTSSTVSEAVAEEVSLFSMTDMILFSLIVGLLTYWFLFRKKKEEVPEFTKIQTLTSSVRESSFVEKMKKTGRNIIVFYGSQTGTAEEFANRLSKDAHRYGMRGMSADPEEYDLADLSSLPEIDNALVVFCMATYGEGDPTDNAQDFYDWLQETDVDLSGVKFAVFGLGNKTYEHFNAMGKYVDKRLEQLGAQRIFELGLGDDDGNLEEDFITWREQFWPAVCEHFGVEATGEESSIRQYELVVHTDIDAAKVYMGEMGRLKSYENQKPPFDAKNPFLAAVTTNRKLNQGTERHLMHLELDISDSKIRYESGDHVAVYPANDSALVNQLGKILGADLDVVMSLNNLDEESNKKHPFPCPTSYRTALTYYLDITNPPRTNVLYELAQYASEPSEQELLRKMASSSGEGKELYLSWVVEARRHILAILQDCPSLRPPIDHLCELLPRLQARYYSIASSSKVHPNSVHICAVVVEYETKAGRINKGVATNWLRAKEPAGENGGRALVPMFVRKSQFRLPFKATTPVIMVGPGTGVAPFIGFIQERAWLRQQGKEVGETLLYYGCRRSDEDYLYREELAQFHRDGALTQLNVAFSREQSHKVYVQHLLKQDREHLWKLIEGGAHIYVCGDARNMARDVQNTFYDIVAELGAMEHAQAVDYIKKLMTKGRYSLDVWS
UniProt Q06830: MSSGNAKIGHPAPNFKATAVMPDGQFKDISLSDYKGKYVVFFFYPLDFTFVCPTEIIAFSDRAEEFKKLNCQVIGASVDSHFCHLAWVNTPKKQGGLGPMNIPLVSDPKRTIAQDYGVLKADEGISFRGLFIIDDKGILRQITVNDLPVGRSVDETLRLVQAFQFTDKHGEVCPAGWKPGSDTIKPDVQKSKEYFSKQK
UniProt Q99633: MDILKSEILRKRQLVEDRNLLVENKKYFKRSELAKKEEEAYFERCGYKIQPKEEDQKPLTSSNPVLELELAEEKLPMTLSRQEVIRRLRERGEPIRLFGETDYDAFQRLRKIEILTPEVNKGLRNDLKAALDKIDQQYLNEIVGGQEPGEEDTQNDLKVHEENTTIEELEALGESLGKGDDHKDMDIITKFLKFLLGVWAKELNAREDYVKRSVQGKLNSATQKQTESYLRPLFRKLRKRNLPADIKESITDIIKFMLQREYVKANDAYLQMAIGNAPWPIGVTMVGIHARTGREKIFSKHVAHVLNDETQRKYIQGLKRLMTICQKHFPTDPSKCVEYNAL
UniProt Q15181: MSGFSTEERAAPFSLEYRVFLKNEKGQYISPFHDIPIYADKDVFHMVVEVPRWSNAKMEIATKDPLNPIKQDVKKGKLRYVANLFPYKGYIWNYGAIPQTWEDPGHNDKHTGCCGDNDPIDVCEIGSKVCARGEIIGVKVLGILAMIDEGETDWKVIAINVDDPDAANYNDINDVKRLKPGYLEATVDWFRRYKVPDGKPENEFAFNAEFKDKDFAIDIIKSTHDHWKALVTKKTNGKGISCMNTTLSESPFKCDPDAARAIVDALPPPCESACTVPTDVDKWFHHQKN
UniProt P28070, whole entry: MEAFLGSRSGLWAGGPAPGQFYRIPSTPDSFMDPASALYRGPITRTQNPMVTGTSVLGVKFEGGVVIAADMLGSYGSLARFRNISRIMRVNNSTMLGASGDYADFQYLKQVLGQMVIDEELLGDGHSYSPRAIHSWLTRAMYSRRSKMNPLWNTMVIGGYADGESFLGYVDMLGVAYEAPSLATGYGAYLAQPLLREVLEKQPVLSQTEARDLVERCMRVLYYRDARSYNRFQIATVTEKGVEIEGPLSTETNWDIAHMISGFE

Compound: COc1ccc(Cn2ccc3cc(C)c(C(=O)NO)cc32)cc1
Assay: dose-dependent thermal stabilisation call (2D-TPP, DLPTP, 10% FDR) (binary (1 = stabilised)); higher = stabilised by the compound
Details: system: HL-60 intact cells; concentration range 0.04-10 µM
Description: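 2D thermal proteome profiling in intact HL-60 cells treated with BRD-3811 (0, 0.04, 0.29, 2, 10 uM) for 90 min at 37 C, then heated 3 min at one of 12 temperatures (42-63.9 C). Soluble protein was quantified by TMT10 MS. The value is the DLPTP call of the paper: dose-dependent thermal stabilisation over all temperatures at 10% FDR (F-test of a dose-response against a flat model); one experiment, one call per tested protein.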

Target	dose-dependent thermal stabilisation call
PSME4 (UniProt Q14997)	inactive: 0
PRKCB (UniProt P05771)	inactive: 0
PRDX4 (UniProt Q13162)	inactive: 0
PRIM1 (UniProt P49642)	inactive: 0
PRG2 (UniProt P13727)	inactive: 0
PTGS1 (UniProt P23219)	inactive: 0
PPP1R9B (UniProt Q96SB3)	inactive: 0
POLRMT (UniProt O00411)	inactive: 0
PREPL (UniProt Q4J6C6)	inactive: 0
PSME2 (UniProt Q9UL46)	inactive: 0
PPP1R11 (UniProt O60927)	inactive: 0
PRKCI (UniProt P41743)	inactive: 0
PPP1CA (UniProt P62136)	inactive: 0
PRPF40A (UniProt O75400)	inactive: 0
POR (UniProt P16435)	inactive: 0
PRKAG1 (UniProt P54619)	inactive: 0
PPP1R14B (UniProt Q96C90)	inactive: 0
PTDSS2 (UniProt Q9BVG9)	inactive: 0
POLR3B (UniProt Q9NW08)	inactive: 0
PSTPIP2 (UniProt Q9H939)	inactive: 0
POLR3K (UniProt Q9Y2Y1)	inactive: 0
PRDX1 (UniProt Q06830)	inactive: 0
PRPF18 (UniProt Q99633)	inactive: 0
PPA1 (UniProt Q15181)	inactive: 0
PSMB4 (UniProt P28070)	inactive: 0
PTPN9 (UniProt P43378)	inactive: 0
PTPN23 (UniProt Q9H3S7)	inactive: 0
